According to PubChem BioAssay AID1671190 (National Center for Advancing Translational Sciences (NCATS), 2021):
The whole screen tested about 580,000 compounds, of which about 6,100 (1.1%) were called active. Inconclusive results, whose numbers are uncertain, are shown with a selection of clear calls. The call rests on the fitted dose curve; in most records, active means well fitted inhibition curve with a large enough effect; inconclusive means small, poorly fitted or top-dose-only effect, or another doubt; inactive means no such curve, though single readings can be large or run the other way. Potencies beside an inconclusive call are fits to weak or partial responses and may not hold up.

The chains behind the UniProt entries cited, without tags or fusion partners. Where a name states a change or a piece, a line headed by the entry shows the natural chain unless it says otherwise.
UniProt P18054: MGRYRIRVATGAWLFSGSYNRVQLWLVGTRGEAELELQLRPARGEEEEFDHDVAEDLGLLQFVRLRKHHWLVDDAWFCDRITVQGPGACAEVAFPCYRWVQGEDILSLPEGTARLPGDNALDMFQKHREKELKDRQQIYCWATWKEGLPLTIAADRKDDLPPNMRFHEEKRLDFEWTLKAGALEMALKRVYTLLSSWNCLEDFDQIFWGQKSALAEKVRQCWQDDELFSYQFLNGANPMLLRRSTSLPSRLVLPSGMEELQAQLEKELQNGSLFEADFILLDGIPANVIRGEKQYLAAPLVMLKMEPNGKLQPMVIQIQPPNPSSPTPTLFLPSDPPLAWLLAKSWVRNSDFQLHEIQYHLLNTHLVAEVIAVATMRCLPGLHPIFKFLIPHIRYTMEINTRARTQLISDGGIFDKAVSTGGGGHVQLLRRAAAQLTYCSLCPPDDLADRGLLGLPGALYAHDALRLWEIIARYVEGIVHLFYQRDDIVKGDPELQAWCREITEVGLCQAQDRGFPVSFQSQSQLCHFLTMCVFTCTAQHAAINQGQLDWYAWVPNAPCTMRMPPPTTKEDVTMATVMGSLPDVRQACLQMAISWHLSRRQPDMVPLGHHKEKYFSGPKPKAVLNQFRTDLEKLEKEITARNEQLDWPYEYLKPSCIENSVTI

molecular target: Polyunsaturated fatty acid lipoxygenase ALOX12 (Homo sapiens) (UniProt P18054); experiment: Primary qHTS assay for inhibitors of human arachidonate 12S-lipoxygenase (ALOX12): Round 2; settings: purified 12hLO, xylenol orange hydroperoxide absorbance; activity change, negative = inhibition: at 108 µM (top of the series) unless noted
In short: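 Purified human 12hLO at 150 nM in 25 mM Hepes, 0.01% Triton X-100, pH 7.0, preincubated 15 min at room temperature with compound. Reaction started with 40 uM arachidonic acid, 30 min at room temperature. Hydroperoxide measured by Fe-xylenol orange, 573/405 nm absorbance ratio.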
On the % scale 0 is the no-effect control and ±100 the full control effect; potency means the concentration at half of the fitted maximal effect.

Row | SMILES | activity change, negative = inhibition | Potency
1 | COc1cc(C(=O)Nc2ccccc2C(=O)NCc2cccnc2)cc(OC)c1OC | inactive: 19.5% | –
2 | COc1cc(/C=N/NC(=O)c2cccc(NC(=O)c3ccccc3C)c2)ccc1O | – | inconclusive: 39.8 µM [inhibitor, single point]
3 | C=CCN1C(=O)/C(=C/c2ccc(-c3ccc(F)cc3)o2)SC1=S | – | active: 44.7 µM
4 | O=C(CN(CC1CCCO1)C(=O)CNS(=O)(=O)c1ccc(Cl)cc1)NCCc1ccccc1 (stereo not drawn) | – | inconclusive: 39.8 µM [inhibitor, partial curve, poor fit]
5 | CC1CCN(S(=O)(=O)c2ccc(NC(=O)CN3CCOCC3)cc2)CC1 | inactive: 12.4% | –
6 | O=C(CSCc1ccccc1)NC1CCSC1=O (stereo not drawn) | – | inconclusive: 39.8 µM [inhibitor, partial curve, poor fit]
7 | Cc1ccc(C)c2[nH]c(=O)c(C(c3nnnn3Cc3ccco3)N3CCc4ccccc4C3)cc12 (stereo not drawn) | – | inconclusive: 39.8 µM [inhibitor, partial curve, poor fit]
8 | Cc1ccccc1/C=N/Nc1nc2ccccc2c(=O)n1O | inactive: 179% | –
9 | O=C(NN=C1CCCC1)c1ccc(CSc2cccc3cccnc23)cc1 | inactive: 56.9% | –
10 | CC(C(=O)NC(=O)NC1CCCCC1)N1CCN(c2ccc(O)cc2)CC1 (stereo not drawn) | – | inconclusive: 28.2 µM [inhibitor, partial curve, poor fit]
11 | Cc1noc(C)c1-c1nc(NC2CCNCC2)c2ccccc2n1 | – | inconclusive: 44.7 µM [inhibitor, partial curve, poor fit]
12 | Cc1ccsc1C(=O)/C(C#N)=C\c1ccc(OC(F)F)cc1 | – | inconclusive: 28.2 µM [inhibitor, partial curve, poor fit]
13 | CCOC(=O)c1c(N)nn(C(C)=O)c1-c1ccccc1 | inactive: -11.2% | –
14 | Cc1nc2nc(-c3ccco3)nn2c(C)c1Cl | – | inconclusive: 56.2 µM [inhibitor, partial curve, poor fit]
15 | O=C(COc1ccc2ccccc2c1)N/N=C/c1ccccn1 | inactive: 10.6% | –
16 | C/C(=C\C(=S)Nc1ccccc1)Nc1ccc2ccccc2c1 | – | inconclusive: 44.7 µM [inhibitor, partial curve, poor fit]
17 | O=C(c1ccc(F)cc1)c1ccc(OCC(=O)N2CCOCC2)cc1 | inactive: 4.88% | –
18 | CC(Sc1ncnc2nc[nH]c12)C(=O)Nc1cccc2ccccc12 (stereo not drawn) | inactive: 5.18% | –
19 | C=CCNc1nc(C(=O)OC(C)C(=O)c2ccc3c(c2)CCC3)cs1 (stereo not drawn) | inactive: -33.2% | –
20 | CC(C)CNC(=O)c1cccc(Cn2cc(Cl)cn2)c1 | inactive: -20.1% | –
21 | CCOCCCNC(=O)c1cc(Sc2ccc(C)cc2)nc2ccccc12 | inactive: -7.23% | –
22 | COc1cccc(C2CC(=O)Nc3c2c(=O)[nH]c2nc4ccccc4n32)c1 (stereo not drawn) | inactive: -24.6% | –
23 | CCc1ccc(C2NC(=S)NC3=C2C(=O)CC(C)(C)C3)cc1 (stereo not drawn) | – | inconclusive: 31.6 µM [inhibitor, full curve, poor fit]

Row | SMILES | activity change, negative = inhibition | Potency
24 | O=C1CCc2cc(OCCCCc3nnnn3C3CCCCC3)ccc2N1 | – | inactive
25 | C=CCNc1oc(/C=C/c2ccc(OC)c(OC)c2)nc1C#N | – | inconclusive: 3.98 µM [inhibitor, full curve, poor fit]
26 | O=c1[nH]c2ccc(S(=O)(=O)NCc3ccccn3)cc2s1 | – | inconclusive: 35.5 µM [inhibitor, single point]
27 | C=CCN(CC=C)CCOc1ccc(OC(C)C)cc1 | – | inconclusive: 1.41 µM [inhibitor, full curve, poor fit]
28 | O=C(C1CCCO1)N1N=C(c2ccc(Br)cc2)CC1c1ccco1 (stereo not drawn) | – | inconclusive: 50.1 µM [inhibitor, partial curve, poor fit]
29 | Cc1ccnc(SC2CC(=O)N(c3ccc(C(C)C)cc3)C2=O)n1 (stereo not drawn) | – | inconclusive: 141 µM [inhibitor, partial curve, poor fit]
30 | Cc1ccccc1C(=O)N1CCC(C(=O)Nc2ccc(S(=O)(=O)N3CCCCC3)cc2)CC1 | – | active: 44.7 µM
31 | N#Cc1ccc(CN2CCC(N3Cc4cccn4C3=O)CC2)cc1 | – | inconclusive: 112 µM [inhibitor, partial curve, poor fit]
32 | Cc1cccc(OCC(=O)Nc2cccc(-c3nnc(-c4ccccc4)o3)c2)c1C | – | inconclusive: 44.7 µM [inhibitor, partial curve, poor fit]
33 | CC(C)(C)NCc1cc(Br)ccc1OC1CCCC1 | – | inconclusive: 158 µM [inhibitor, single point]
34 | COc1ccccc1Nc1ccc(Nc2ccccc2OC)nn1 | inactive: -6.35% | –
35 | CCOCCOC(=O)c1nc2ccccc2nc1Nc1ccc(C)cc1C | – | inconclusive: 17.8 µM [inhibitor, full curve]
36 | CC(C)(C)OC(=O)C[C@@H]1C/C=C\C[C@H](CC(=O)N[C@H](CO)Cc2ccccc2)C(=O)N[C@@H](Cc2c[nH]c3ccccc23)COC1=O | inactive: -7.93% | –
37 | COc1ccc2c(c1)CC/C(=C\c1ccc(Br)cc1)C2=O | – | inconclusive: 25.1 µM [inhibitor, single point]
38 | COc1cc(-n2ccc3c(nnc4c(-c5cccc(Cl)c5)c(C)nn43)c2=O)cc(OC)c1OC | inactive: 1.37% | –
39 | Cc1cc(C)c2c(N)c(S(=O)c3ccc(C(C)(C)C)cc3)sc2n1 (stereo not drawn) | – | inconclusive: 11.2 µM [inhibitor, full curve]
40 | O=C(NCc1cccc(Cl)c1)c1ccc(-n2ccnc2)c2ccoc12 | – | active: 39.8 µM
41 | CCOC(=O)C1=NNC(C(=O)c2ccc(Cl)cc2)C1c1ccccc1 (stereo not drawn) | – | inconclusive: 39.8 µM [inhibitor, partial curve, poor fit]
42 | CCOc1ccc(NC(=O)c2ncoc2-c2ccco2)cc1 | inconclusive: -39.5% [inhibitor] | inconclusive: 50.1 µM [inhibitor, partial curve, poor fit]
43 | CN(C)c1ccc(NC2=C(Cl)C(=O)c3ccccc3C2=O)cc1 | – | inconclusive: 4.47 µM [inhibitor, partial curve, poor fit]
44 | Cc1c(CN2CCN(c3ncc(F)cn3)CC2)[nH]c2ccc(F)cc12 | – | inconclusive: 14.1 µM [inhibitor, full curve]
45 | COc1cc(CNC[C@H]2O[C@@H](n3cc(C)c(=O)[nH]c3=O)C[C@@H]2O)ccc1OCc1cccc(Cl)c1 | – | inconclusive: 89.1 µM [inhibitor, single point]
46 | N#Cc1cccc(-c2ccc3ncnc(NCc4ccccc4)c3c2)c1 | – | inconclusive: 50.1 µM [inhibitor, partial curve, poor fit]

Row | SMILES | activity change, negative = inhibition | Potency
47 | O=C(Cn1c(=O)oc2cc(S(=O)(=O)N3CCOCC3)ccc21)c1ccc(F)cc1 | inactive: -1.7% | –
48 | CC(O)(c1ccccc1)c1nc(/C=C/c2ccccc2)cs1 (stereo not drawn) | – | inconclusive: 39.8 µM [inhibitor, partial curve, poor fit]
49 | O=C(O)/C=C/c1ccc(F)cc1F | – | inconclusive: 112 µM [inhibitor, single point]
50 | Cc1occc1C(=O)NC(C)C1CCCO1 (stereo not drawn) | – | inconclusive: 35.5 µM [inhibitor, partial curve, poor fit]
51 | Cc1cccc(NC2=C(C(N)=O)S(=O)(=O)c3ccccc32)c1 | – | inconclusive: 35.5 µM [inhibitor, partial curve, poor fit]
52 | CC(C)(C)CCNC(=O)c1cc(C2CC2)nc2ccccc12 | inactive: -10.2% | –
53 | CCOc1cc(/C=C2\C(=O)N(Cc3ccco3)C(C)=C2C(=O)OC)ccc1O | – | inconclusive: 44.7 µM [inhibitor, partial curve, poor fit]
54 | CC(=O)Nc1ccc(NC(=O)CC2C(=O)NCCN2C(=O)CN2CCN(c3ncccn3)CC2)cc1 (stereo not drawn) | inactive: 10.9% | –
55 | CN(C)CCCN(Cc1ccc(Cl)cc1Cl)Cc1ccc(Cl)cc1Cl | – | inconclusive: 0.794 µM [inhibitor, full curve, poor fit]
56 | COC(=O)N/N=C/c1c(C)nn(-c2cccc(Cl)c2)c1Cl | – | inconclusive: 89.1 µM [inhibitor, single point]
57 | O=C(c1ccc(=O)[nH]c1)N1CCC(C(=O)N2CCc3c(nc4cc(-c5ccccc5)[nH]n4c3=O)C2)CC1 | – | inconclusive: 7.08 µM [inhibitor, full curve]
58 | C=CCN(Cc1cn(C)nc1-c1cccc(Cl)c1)C1CCS(=O)(=O)C1 (stereo not drawn) | – | inconclusive: 0.112 µM [inhibitor, full curve, poor fit]
59 | CCOC(=O)c1cccc(NC(=O)c2ncoc2-c2ccc(OC)cc2)c1 | – | inconclusive: 44.7 µM [inhibitor, full curve, poor fit]
60 | CNC(=O)[C@@H](c1ccccc1OC)N1CCC[C@H]1C(=O)N1CCOCC1 | – | inconclusive: 15.8 µM [inhibitor, full curve, poor fit]
61 | [O-][n+]1c(/C=C/c2ccccc2)ccc2ccccc21 | – | inconclusive: 63.1 µM [inhibitor, partial curve, poor fit]
62 | Cc1cccc(-c2[nH]ncc2C=O)c1 | – | inconclusive: 126 µM [inhibitor, single point]
63 | CN1C[C@H]2CN(Cc3ccc(C(=O)O)cc3)CCN2C1=O | – | inconclusive: 35.5 µM [inhibitor, full curve]
64 | O=C1OC(Nc2cc(Br)cc3cccnc23)c2ccccc21 (stereo not drawn) | – | inconclusive: 50.1 µM [inhibitor, partial curve, poor fit]
65 | CCCCNc1nnc(SCC(=O)c2c(N)n(C3CC3)c(=O)[nH]c2=O)s1 | – | inconclusive: 79.4 µM [inhibitor, partial curve, poor fit]
66 | COc1ccc2c(c1)C(n1ccc3ccccc31)C(=O)N2Cc1ccc(C(F)(F)F)cc1 (stereo not drawn) | – | inconclusive: 44.7 µM [inhibitor, partial curve, poor fit]
67 | O=C(CNCc1ccc(Cl)cc1)Nc1cc(S(=O)(=O)N2CCCC2)ccc1Cl | – | inconclusive: 1.41 µM [inhibitor, full curve, poor fit]

By substructure, the compounds so far with a COOH group.
Row | SMILES | activity change, negative = inhibition | Potency
49 | O=C(O)/C=C/c1ccc(F)cc1F | – | inconclusive: 112 µM [inhibitor, single point]
63 | CN1C[C@H]2CN(Cc3ccc(C(=O)O)cc3)CCN2C1=O | – | inconclusive: 35.5 µM [inhibitor, full curve]
